Assay results published in the supplement of paper PMC12823440, “Inhibitors supercharge kinase turnover through native proteolytic circuits” (Nature, 2025).
The list shows a part of the results. The calls rarely recur for the same compound in another form.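 Kinases were expressed as nanoluciferase fusions in K562 cells and luminescence was read every 4 h between 2 and 18 h as percent of control, DMSO set to 100% and a positive control to 0%. A time point counts as decreased when the signal drops significantly (2 sigma). The hit call is the authors' own, does not follow from the count of time points alone, and its rule is not shown.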

The chains behind the UniProt entries cited, without tags or fusion partners. Where a name states a change or a piece, a line headed by the entry shows the natural chain unless it says otherwise.
UniProt P07947, whole entry, looked up: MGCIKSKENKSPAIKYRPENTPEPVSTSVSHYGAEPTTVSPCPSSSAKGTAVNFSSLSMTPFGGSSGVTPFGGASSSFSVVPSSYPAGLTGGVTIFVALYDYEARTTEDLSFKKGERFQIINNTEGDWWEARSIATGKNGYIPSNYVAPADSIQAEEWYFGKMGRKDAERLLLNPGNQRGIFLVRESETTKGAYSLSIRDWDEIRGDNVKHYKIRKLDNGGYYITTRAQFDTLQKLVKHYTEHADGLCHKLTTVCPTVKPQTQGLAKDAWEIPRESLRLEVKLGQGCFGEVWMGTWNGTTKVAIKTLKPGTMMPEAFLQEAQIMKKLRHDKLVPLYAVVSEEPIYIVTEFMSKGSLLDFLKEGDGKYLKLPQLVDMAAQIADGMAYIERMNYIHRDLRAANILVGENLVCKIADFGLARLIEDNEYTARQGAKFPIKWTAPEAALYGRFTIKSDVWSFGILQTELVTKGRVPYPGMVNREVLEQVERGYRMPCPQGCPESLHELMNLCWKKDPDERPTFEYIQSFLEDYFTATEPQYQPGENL
UniProt P43403: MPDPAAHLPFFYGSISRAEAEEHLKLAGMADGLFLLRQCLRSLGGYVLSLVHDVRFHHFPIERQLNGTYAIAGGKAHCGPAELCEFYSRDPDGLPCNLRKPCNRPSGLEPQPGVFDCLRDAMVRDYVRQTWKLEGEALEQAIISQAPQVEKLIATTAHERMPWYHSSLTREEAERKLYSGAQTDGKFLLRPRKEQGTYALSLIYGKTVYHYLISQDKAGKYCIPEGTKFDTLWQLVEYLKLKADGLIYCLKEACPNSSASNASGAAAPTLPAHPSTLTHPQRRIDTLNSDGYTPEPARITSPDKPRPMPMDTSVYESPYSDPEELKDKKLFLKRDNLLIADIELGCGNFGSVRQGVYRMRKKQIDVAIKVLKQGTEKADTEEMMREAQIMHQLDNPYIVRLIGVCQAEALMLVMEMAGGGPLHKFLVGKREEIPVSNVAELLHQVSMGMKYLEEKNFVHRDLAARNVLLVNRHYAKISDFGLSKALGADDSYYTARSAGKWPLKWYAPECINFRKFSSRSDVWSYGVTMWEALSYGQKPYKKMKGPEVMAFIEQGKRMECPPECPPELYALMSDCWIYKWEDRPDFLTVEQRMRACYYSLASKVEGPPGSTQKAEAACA
UniProt P11802: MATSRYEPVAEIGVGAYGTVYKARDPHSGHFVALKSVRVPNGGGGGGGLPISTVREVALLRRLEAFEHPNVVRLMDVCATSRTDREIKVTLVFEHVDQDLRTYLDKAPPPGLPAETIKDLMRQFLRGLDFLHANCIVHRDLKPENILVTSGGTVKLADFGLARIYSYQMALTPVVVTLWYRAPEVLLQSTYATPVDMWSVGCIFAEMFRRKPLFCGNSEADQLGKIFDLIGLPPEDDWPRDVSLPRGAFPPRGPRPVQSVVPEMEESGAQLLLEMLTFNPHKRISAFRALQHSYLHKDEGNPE
UniProt P50613: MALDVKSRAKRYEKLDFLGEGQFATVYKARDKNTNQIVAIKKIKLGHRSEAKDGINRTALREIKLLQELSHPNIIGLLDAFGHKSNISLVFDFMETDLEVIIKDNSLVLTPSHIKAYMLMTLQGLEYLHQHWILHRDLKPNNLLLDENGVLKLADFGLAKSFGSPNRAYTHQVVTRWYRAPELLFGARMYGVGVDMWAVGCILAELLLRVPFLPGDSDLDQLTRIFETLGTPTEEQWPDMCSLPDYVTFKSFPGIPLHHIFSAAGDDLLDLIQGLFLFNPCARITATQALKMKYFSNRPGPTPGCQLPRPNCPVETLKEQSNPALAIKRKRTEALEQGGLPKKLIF
UniProt P50750, whole entry: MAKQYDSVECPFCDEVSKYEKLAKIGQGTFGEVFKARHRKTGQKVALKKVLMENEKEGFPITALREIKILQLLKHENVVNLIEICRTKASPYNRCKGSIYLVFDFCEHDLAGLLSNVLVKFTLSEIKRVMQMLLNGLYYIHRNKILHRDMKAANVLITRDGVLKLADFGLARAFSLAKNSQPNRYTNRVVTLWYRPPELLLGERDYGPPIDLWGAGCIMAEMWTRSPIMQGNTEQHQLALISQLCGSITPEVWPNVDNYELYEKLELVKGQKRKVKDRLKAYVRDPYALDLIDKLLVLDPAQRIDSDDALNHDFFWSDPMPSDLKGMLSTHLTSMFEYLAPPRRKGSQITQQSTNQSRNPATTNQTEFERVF

Legend:
Settings in all cases: K562; 2-18 h
[1] = molecular target: YES1 (UniProt P07947); assay: number of time points (of 5) at which kinase-Nluc abundance scored as decreased, DMSO-normalised (count); higher = more persistent destabilization
[2] = molecular target: ZAK (UniProt Q9NYL2); assay: as above
[3] = molecular target: ZAP70 (UniProt P43403); assay: as above
[4] = molecular target: CDK4 (UniProt P11802); assay: number of time points (of 4; 2 h point missing) at which kinase-Nluc abundance scored as decreased, DMSO-normalised (count); higher = more persistent destabilization
[5] = molecular target: CDK7 (UniProt P50613); assay: as above
[6] = molecular target: CDK9 (UniProt P50750); assay: as above

Measured: number of time points

CCn1c(=O)c(-c2cc[nH]n2)cc2c(C)nc(N)nc21 [Voxtalisib] (10 µM)
0: [1] | [2] | [3] | [4] | [5] | [6]

CC(C)CCNC(=O)c1ccc2c(c1)nc(Nc1n[nH]c3ccc(-c4ccccc4OC(F)(F)F)cc13)n2C1CCC(O)CC1 (stereo not drawn) [IRAK inhibitor 4 (trans)] (10 µM)
0: [1] | [2] | [3] | [4] | [5] | [6]

COc1cc(N2CCOCC2)ccc1Nc1ncc(Cl)c(Nc2ccccc2NS(C)(=O)=O)n1 (2.5 µM)
0: [1] | [2] | [3] | [4] | [5] | [6]

O=C1/C(=C\c2ccc(Cl)cc2)C=C(c2ccccc2)N1c1ccc(O)cc1 (2.5 µM)
0: [1] | [2] | [3] | [4] | [5] | [6]

Cc1cc(Nc2nc(CC3(C(=O)O)CCN(C(=O)c4cccc(Cl)c4Cl)CC3)ccc2F)n[nH]1 (10 µM)
0: [2] | [3] | [4] | [6]
1: [1]
3: [5]

O=C(O)c1cc(N(Cc2ccccc2O)Cc2ccccc2O)ccc1O [Lavendustin B] (10 µM)
0: [1] | [2] | [3] | [4] | [5] | [6]

O=C1O[C@H]([C@@H](O)CO)C(O)=C1OP(=O)(O)O [2-Phospho-L-ascorbic acid (trisodium)] (10 µM)
0: [1] | [2] | [3] | [4] | [5] | [6]

C[C@H](NC(=O)[C@H]1NCC[C@@H]1O)c1ccc(-c2noc(CCC3CCCC3)n2)cc1 (10 µM)
0: [1] | [2] | [3] | [4] | [5] | [6]

Cc1c(-c2ccc(C(N)=O)c3[nH]c4cc(C(C)(C)O)ccc4c23)cccc1-n1cnc2ccccc2c1=O (2.5 µM)
0: [1] | [2] | [3] | [4] | [5] | [6]

Sorted by count of non-hydrogen atoms (ascending): 3 of the compounds above
O=C1O[C@H]([C@@H](O)CO)C(O)=C1OP(=O)(O)O [2-Phospho-L-ascorbic acid (trisodium)] (10 µM)
0: [1] | [2] | [3] | [4] | [5] | [6]

C[C@H](NC(=O)[C@H]1NCC[C@@H]1O)c1ccc(-c2noc(CCC3CCCC3)n2)cc1 (10 µM)
0: [1] | [2] | [3] | [4] | [5] | [6]

Cc1cc(Nc2nc(CC3(C(=O)O)CCN(C(=O)c4cccc(Cl)c4Cl)CC3)ccc2F)n[nH]1 (10 µM)
0: [2] | [3] | [4] | [6]
1: [1]
3: [5]

(listing goes on)

N#Cc1c2nc3ccccc3nc2n2ccc(NC(=O)c3cccs3)cc12 (10 µM)
0: [1] | [2] | [3] | [4] | [5] | [6]

Cn1cc(-c2c[nH]c3ncnc(N4CCOCC4)c23)cc1C#N (10 µM)
0: [1] | [2] | [3] | [4] | [5] | [6]

O=C(NC1CCOCC1)c1ccc(-c2cc(-c3c[nH]nc3-c3ccccn3)ccn2)cc1 (10 µM)
0: [1] | [2] | [3] | [4] | [5] | [6]

Oc1ccc(/C=C/c2cc(O)cc(F)c2)cc1 [Resveratrol analog 1] (10 µM)
0: [1] | [2] | [3] | [4] | [5] | [6]

NC(=O)c1cnc2[nH]ccc2c1N[C@@H]1[C@@H]2CC3C[C@H]1C[C@@](O)(C3)C2 [Peficitinib] (10 µM)
0: [2] | [3] | [4] | [6]
1: [1] | [5]

Nc1ncnc2c1c(-c1ccc(Oc3ccccc3)cc1)nn2C1CCN(CCOCCOCCOc2ccc3c(c2)CN(C2CCC(=O)NC2=O)C3=O)CC1 (stereo not given) (2.5 µM)
0: [1] | [2] | [3] | [4] | [5] | [6]

CC(=O)c1c(C)c2cnc(Nc3ccc(N4CCN(C(=O)CNc5cccc6c5C(=O)N(C5CCC(=O)NC5=O)C6=O)CC4)cn3)nc2n(C2CCCC2)c1=O (stereo not given) (10 µM)
0: [1] | [2] | [3] | [5] | [6]
4: [4]

Cc1cc(Nc2ncnc3ccc(-c4ccc(CNCCS(C)(=O)=O)o4)cc23)ccc1Oc1ccn2ncnc2c1 [ARRY-380 (analog )] (2.5 µM)
0: [1] | [2] | [3] | [4] | [5] | [6]

Cc1cc2sc(NC(=O)Cc3ccccc3)nc2cc1Cl (10 µM)
0: [1] | [2] | [3] | [4] | [5] | [6]

CCN(CC)c1cc2oc(=O)c(-c3nc4ccccc4o3)cc2cc1C (2.5 µM)
0: [1] | [2] | [3] | [4] | [5] | [6]

Nc1c(C(=O)NCc2ccc(C(=O)NCCCC3CCCCC3)cc2)cnn1-c1ccccc1 (2.5 µM)
0: [1] | [2] | [3] | [4] | [5] | [6]

Oc1cc(O)c2c(c1)OC1(c3ccc(O)c(O)c3)Oc3cc(O)c4c(c3C2C1O)OC(c1ccc(O)c(O)c1)C(O)C4 (stereo not given) [Procyanidin A1] (10 µM)
0: [1] | [2] | [3] | [4] | [5] | [6]

Nc1cccc(-c2cc3c(Oc4cccc(O)c4)ncnc3[nH]2)c1 (10 µM)
2: [5] | [6]
0: [2] | [3] | [4]
1: [1]

Cc1cccc2c3c(ccc12)C(=O)C1=C(OCC1C)C3=O (stereo not given) [Dihydroisotanshinone I] (2.5 µM)
0: [1] | [2] | [3] | [4] | [5] | [6]

COc1cc(N2CCOCC2)ccc1NC(=O)c1csc(-c2cccnc2)n1 [IRAK inhibitor 6] (10 µM)
0: [1] | [2] | [3] | [4] | [5] | [6]

Cn1cc2cc(C(F)(F)c3nnc4ccc(-c5cnn(C6CC6)c5)nn34)c(F)cc2n1 [Bozitinib] (10 µM)
0: [1] | [2] | [3] | [4] | [5] | [6]
